# Data as given in publication PMC6953711.
# Amino acid sequences for entries named in this document (tags omitted).
# UniProt Q61466: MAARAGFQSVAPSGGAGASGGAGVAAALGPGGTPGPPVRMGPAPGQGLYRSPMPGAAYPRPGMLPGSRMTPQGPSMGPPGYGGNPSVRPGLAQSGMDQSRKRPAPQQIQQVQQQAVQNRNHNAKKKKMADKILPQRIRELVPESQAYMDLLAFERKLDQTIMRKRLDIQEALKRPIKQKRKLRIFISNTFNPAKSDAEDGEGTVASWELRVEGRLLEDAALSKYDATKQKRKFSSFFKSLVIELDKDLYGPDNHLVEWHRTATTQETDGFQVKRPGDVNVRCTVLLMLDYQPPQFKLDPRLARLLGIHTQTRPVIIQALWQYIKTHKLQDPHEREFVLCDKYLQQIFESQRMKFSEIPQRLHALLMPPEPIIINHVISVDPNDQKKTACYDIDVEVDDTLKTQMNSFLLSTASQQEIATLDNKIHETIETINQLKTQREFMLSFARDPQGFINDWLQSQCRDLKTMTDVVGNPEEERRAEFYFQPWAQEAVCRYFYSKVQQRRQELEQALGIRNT
# No constants are given. Whether binding was seen depends on the method and setting. In cells and extracts the contact can be indirect. Some entries that bind do so weakly or less than the wild type. For part of these data: Tags and fused reporters may be left off the sequences shown.
# B1: peroxisome proliferator-activated receptor-γ coactivator-1α (PGC-1α) (protein, UniProt O70343 1-797)
# chain: MAWDMCSQDSVWSDIECAALVGEDQPLCPDLPELDLSELDVNDLDTDSFLGGLKWCSDQSEIISNQYNNEPANIFEKIDEENEANLLAVLTETLDSLPVDEDGLPSFDALTDGAVTTDNEASPSSMPDGTPPPQEAEEPSLLKKLLLAPANTQLSYNECSGLSTQNHAANHTHRIRTNPAIVKTENSWSNKAKSICQQQKPQRRPCSELLKYLTTNDDPPHTKPTENRNSSRDKCASKKKSHTQPQSQHAQAKPTTLSLPLTPESPNDPKGSPFENKTIERTLSVELSGTAGLTPPTTPPHKANQDNPFKASPKLKPSCKTVVPPPTKRARYSECSGTQGSHSTKKGPEQSELYAQLSKSSGLSRGHEERKTKRPSLRLFGDHDYCQSLNSKTDILINISQELQDSRQLDFKDASCDWQGHICSSTDSGQCYLRETLEASKQVSPCSTRKQLQDQEIRAELNKHFGHPCQAVFDDKSDKTSELRDGDFSNEQFSKLPVFINSGLAMDGLFDDSEDESDKLSYPWDGTQPYSLFDVSPSCSSFNSPCRDSVSPPKSLFSQRPQRMRSRSRSFSRHRSCSRSPYSRSRSRSPGSRSSSRSCYYYESSHYRHRTHRNSPLYVRSRSRSPYSRRPRYDSYEAYEHERLKRDEYRKEHEKRESERAKQRERQKQKAIEERRVIYVGKIRPDTTRTELRDRFEVFGEIEECTVNLRDDGDSYGFITYRYTCDAFAALENGYTLRRSNETDFELYFCGRKQFFKSNYADLDTNSDDFDPASTKSKYDSLDFDSLLKEAQRSLRR
# B2: PGC-1α overexpressed from adenovirus (Ad-PGC-1α) (protein, UniProt O70343 1-797)
# chain: MAWDMCSQDSVWSDIECAALVGEDQPLCPDLPELDLSELDVNDLDTDSFLGGLKWCSDQSEIISNQYNNEPANIFEKIDEENEANLLAVLTETLDSLPVDEDGLPSFDALTDGAVTTDNEASPSSMPDGTPPPQEAEEPSLLKKLLLAPANTQLSYNECSGLSTQNHAANHTHRIRTNPAIVKTENSWSNKAKSICQQQKPQRRPCSELLKYLTTNDDPPHTKPTENRNSSRDKCASKKKSHTQPQSQHAQAKPTTLSLPLTPESPNDPKGSPFENKTIERTLSVELSGTAGLTPPTTPPHKANQDNPFKASPKLKPSCKTVVPPPTKRARYSECSGTQGSHSTKKGPEQSELYAQLSKSSGLSRGHEERKTKRPSLRLFGDHDYCQSLNSKTDILINISQELQDSRQLDFKDASCDWQGHICSSTDSGQCYLRETLEASKQVSPCSTRKQLQDQEIRAELNKHFGHPCQAVFDDKSDKTSELRDGDFSNEQFSKLPVFINSGLAMDGLFDDSEDESDKLSYPWDGTQPYSLFDVSPSCSSFNSPCRDSVSPPKSLFSQRPQRMRSRSRSFSRHRSCSRSPYSRSRSRSPGSRSSSRSCYYYESSHYRHRTHRNSPLYVRSRSRSPYSRRPRYDSYEAYEHERLKRDEYRKEHEKRESERAKQRERQKQKAIEERRVIYVGKIRPDTTRTELRDRFEVFGEIEECTVNLRDDGDSYGFITYRYTCDAFAALENGYTLRRSNETDFELYFCGRKQFFKSNYADLDTNSDDFDPASTKSKYDSLDFDSLLKEAQRSLRR
# What was measured:
# [1] = target: BAF60a (mouse (endogenous in liver and primary hepatocytes)) (UniProt Q61466); experiment: co-IP; endogenous proteins; mouse liver homogenates/lysates (ad libitum, 24-h fasting, ND or HFD feeding) and mouse primary hepatocyte lysates (untreated, DF 6 h or FFAs 24 h); 40 μg lysate with protein-A/G agarose beads and 1 μg anti-BAF60a or anti-YB-1 antibody overnight; Western blot
# [2] = target: BAF60a (mouse (endogenous in liver and primary hepatocytes)) (UniProt Q61466); experiment: co-IP; mouse primary hepatocytes transfected with vector or the YB-1 plasmid followed by 6-h DF stimulation; immunoblots of precipitated proteins
# [3] = target: BAF60a (mouse (endogenous in liver and primary hepatocytes)) (UniProt Q61466); experiment: co-IP; mouse primary hepatocytes infected with Ad-GFP or Ad-PGC-1α followed by 24-h FFA stimulation; immunoblots of precipitated proteins
Binder,binding [1],binding [2],binding [3]
B1,binds,binds,–
B2,–,–,binds
